The record followed here is the supplement of paper PMC12764529.

Data set [1] can be described thus: folding stability dG unfold from trypsin proteolysis; higher = more stable. The method, boiled down: (§1)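 Mini-proteins designed to be under 80 residues and free of cysteine were carried in a PA-tagged cDNA display construct and digested with trypsin and with chymotrypsin. Each protease was applied at 11 threefold-diluted concentrations, alongside a no-protease condition, before sequencing. K50 came from Bayesian fitting of the sequencing counts, and unfolding free energy was obtained by comparing it with a sequence-predicted unfolded-state K50 and a shared folded-state K50, for each protease separately or for both together. Designs were retained only if their AlphaFold2 dimer inter-PAE exceeded 15.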

Data set [2] in a line: folding stability dG unfold from chymotrypsin proteolysis; higher = more stable. The method, boiled down: as §1
A short description of data set [3]: folding stability dG unfold (combined trypsin and chymotrypsin); higher = more stable. The essentials: as §1

± gives the half width of the 95% confidence interval. The two proteases of the assay disagree for many of these sequences.

With “SAGGSAGGSADDPNNPDQQQKVVPIEIKIEVEIVWIPNGWWIYKITIEFGGITIEIYFAGPWSAGGSAGGSA [r18_335_TrROS]”, the “folding stability dG unfold” value was 3.05 ± 0.25 kcal/mol in data set [1], 5.12 ± 0.11 kcal/mol in data set [2] and 4.73 ± 0.52 kcal/mol in data set [3].

“SAGGSMYKIKIENENGEIFEVEVKITEVKEVNGKLYLKIEVTIDGKTYTLTIPLEKIKKIEIYEEPSAGGSA [r2_319_TrROS_Hall]”: the “folding stability dG unfold” value in data set [1] was determined as 2.73 ± 0.076 kcal/mol; in data set [2], 4.77 ± 0.1 kcal/mol; in data set [3], 4.42 ± 0.14 kcal/mol.

As for “SARIVLPDGREVDFEIVRVERFPEGVRILALYRHDDTYRLVEFEIPPFGEIRLVSEVEVPLPPGFPGLRSAG [r14_13_TrMRF]”, the results for the “folding stability dG unfold” value in data set [1], in data set [2] and in data set [3] were 1.471 ± 0.011 kcal/mol, 4.243 ± 0.038 kcal/mol and 3.75 ± 0.067 kcal/mol, respectively.

With “SKKVEKKVTLKIEIELPDGYKVEIEVKNGKIEIKIEPVKFYNKDGKEFKTKEEAEKAAKKEGIEITKEDLSA [r9_660_TrROS_Hall]”, the “folding stability dG unfold” value was 0.225 ± 0.26 kcal/mol in data set [1], 3.2 ± 0.077 kcal/mol in data set [2] and 2.67 ± 0.24 kcal/mol in data set [3].

On to “NNMIEITYRIPGMTVEIWISPDDGTIELEIYNPKNGWPVTITMKVKKIDPENGAIVIDIKIRMPPGAKIPPS [r1_234_TrROS]”, for which the “folding stability dG unfold” value in data set [1] was determined as 1.76 ± 0.09 kcal/mol; in data set [2], 3.98 ± 0.19 kcal/mol; in data set [3] it was 2.85 ± 0.42 kcal/mol.

For the sequence “SAGGSAGGSMTIRIENEDGEEVIEIEVPPGAKAEDLEIEIGGKKAKIVEVDEETGRVTIKIEPSAGGSAGGS [r12_675_TrROS_Hall]”, the “folding stability dG unfold” value is 0.258 ± 0.17 kcal/mol in data set [1], 2.52 ± 0.13 kcal/mol in data set [2] and 1.68 ± 0.43 kcal/mol in data set [3].

For “SAGMEELELELEVTYLFPAGNPPDLQAIADRLRALGLEVEDIRAERPPGDSYRVTARVRLRLPPELARSSAG [r5_167_TrMRF]”, the “folding stability dG unfold” value is 0.00927 ± 0.22 kcal/mol in data set [1], 4.176 ± 0.033 kcal/mol in data set [2] and 3.64 ± 0.093 kcal/mol in data set [3].

With “SAGGSMKIEKKEDGTLVITLPAEDEEKIEELKKLLEELGFEVVKVEKNENGEVTITVKLTPEAIKKSAGGSA [r2_224_TrROS_Hall]”, the “folding stability dG unfold” value in data set [1] was determined as 0.841 ± 0.17 kcal/mol; in data set [2], 2.95 ± 0.27 kcal/mol; in data set [3] it was 2.52 ± 0.45 kcal/mol.

With “SAGGSAGGSAGLKPGDPVIAISIDIEPEIKVEPDGNKWKLKLEWEIKIDIHRFRVPPGAPSAGGSAGGSAGG [r17_186_TrROS]”, the figures for the “folding stability dG unfold” value in data set [1], in data set [2] and in data set [3] were 2.68 ± 0.37 kcal/mol, 5.24 ± 0.27 kcal/mol and 4.6 ± 0.69 kcal/mol, respectively.

“SAKEIKEPKEVYKITIKVKNPNGEEKEIVITLSKEELENEEVLKKLVEELKEKGYEVEVKIEPVKVEEPSAG [r14_60_TrROS_Hall]”: the “folding stability dG unfold” value was found to be 0.938 ± 0.1 kcal/mol in data set [1], 3.25 ± 0.051 kcal/mol in data set [2] and 2.74 ± 0.1 kcal/mol in data set [3].

With “SAGGSAKIKIIEIDGKLIILEENKDGTIKAYIFNKKTGEIYKITFDKKTGKIVKVEKIKVKPGEKISAGGSA [r15_425_TrROS_Hall]”, the “folding stability dG unfold” value in data set [1] is 2.13 ± 0.073 kcal/mol; in data set [2], 4.75 ± 0.064 kcal/mol; in data set [3], 4.46 ± 0.16 kcal/mol.

Consider “SAGGMYIVKVKIVNKETGKTIEITLLVPETEEEALEKARELAKKLGLKDVKVEVEIIEIKEDDPAIKKSAGG [r13_682_TrROS_Hall]”, for which the “folding stability dG unfold” value is 0.371 ± 0.27 kcal/mol in data set [1], 3.96 ± 0.14 kcal/mol in data set [2] and 3.35 ± 0.26 kcal/mol in data set [3].

For “SMVRIYVHPEMSEEERKKAEELIKRILEKLEEGKTIEEIAKEIKEETNLPNVKIVRIEILEPPSEEELKKSA [r9_620_TrROS_Hall]”, the “folding stability dG unfold” value stood at 1.19 ± 0.062 kcal/mol in data set [1], 3.33 ± 0.29 kcal/mol in data set [2] and 2.83 ± 0.45 kcal/mol in data set [3].
